Measured values published in patent US6642381B2, “Pyrimido[5,4-e][1,2,4]triazine-5,7-diamine compounds as protein tyrosine phosphatase inhibitors” (Hoffman-La Roche Inc., priority 2001, dated 2003).
Some entries share one result that the patent states for a list of compounds.

system: rodent in vivo models of type 2 diabetes and obesity (ob/ob mice; DIO C57BL6/J mice); experiment: Effects of compounds on blood glucose levels in mouse model (ob/ob mice, DIO mice); conditions: procedure of Example 27, gavage once daily for five days

SMILES | blood glucose reductions
Nc1nc(N)c2nc(CN3CCN(Cc4ccc(-c5ccccc5)cc4)CC3)nnc2n1 [Example 13, 3-(4-Biphenyl-4-ylmethyl-piperazin-1-ylmethyl)-pyrimido[5,4-e][1,2,4]triazine-5,7-diamine] | at least 15%
Nc1nc(N)c2nc(CN3CCN(Cc4ccccc4)CC3)nnc2n1 [Example 10, 3-(4-Benzyl-piperazin-1-ylmethyl)-pyrimido[5,4-e][1,2,4]triazine-5,7-diamine] | at least 15%
CCN(CC)Cc1nnc2nc(N)nc(N)c2n1 [Example 5, 3-Diethylaminomethyl-pyrimido[5,4-e][1,2,4]triazine-5,7-diamine] | at least 15%
